Laboratory results taken from publication PMC5349226.
These are yes or no findings as the source states them, for the method shown. Binding seen in cells or lysates may run through a third protein. Some binding calls cover weakened binding; strength is not graded here.

T1: Mia40 (baker's yeast (in mitochondria of strains derived from YPH499)) (UniProt P36046)
T1 sequence: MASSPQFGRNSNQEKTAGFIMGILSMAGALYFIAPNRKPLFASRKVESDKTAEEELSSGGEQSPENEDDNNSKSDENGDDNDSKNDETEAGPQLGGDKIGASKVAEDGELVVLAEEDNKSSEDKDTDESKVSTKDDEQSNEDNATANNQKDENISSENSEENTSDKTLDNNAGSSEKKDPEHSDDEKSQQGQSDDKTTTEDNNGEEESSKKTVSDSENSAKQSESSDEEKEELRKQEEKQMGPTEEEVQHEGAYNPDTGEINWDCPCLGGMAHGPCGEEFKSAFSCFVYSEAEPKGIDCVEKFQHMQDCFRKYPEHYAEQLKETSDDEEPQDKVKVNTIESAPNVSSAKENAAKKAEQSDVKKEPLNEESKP


Target: T1, Mia40 (baker's yeast (in mitochondria of strains derived from YPH499))
Experiment: co-IP; 35S-labelled proteins imported for 2 min into isolated Mia40-upregulated mitochondria; mitochondria treated with 150 mM NEM and lysed; immunoprecipitation with Mia40-specific antibodies or preimmune serum; SDS-PAGE with or without beta-mercaptoethanol, autoradiography (detects mixed disulfides)

| binding | Molecule |
| --- | --- |
| no binding | IMS-targeted Dre2 (from UniProt P36046 1-70; P36152 1-348) |
| binds | Tim9 (protein, UniProt O74700 1-87, 35S-methionine (radiolabel)) MDALNSKEQQEFQKVVEQKQMKDFMRLYSNLVERCFTDCVNDFTTSKLTNKEQTCIMKCSEKFLKHSERVGQRFQEQNAALGQGLGR |
